Measurements published in paper PMC9576622.
These are yes or no findings as the source states them, for the method shown. In cells and extracts the contact can be indirect. Some results given as binding are weak or reduced against the parent protein; the word gives no strength.

Amino acid sequences for entries named in this document (tags omitted).
UniProt P30051: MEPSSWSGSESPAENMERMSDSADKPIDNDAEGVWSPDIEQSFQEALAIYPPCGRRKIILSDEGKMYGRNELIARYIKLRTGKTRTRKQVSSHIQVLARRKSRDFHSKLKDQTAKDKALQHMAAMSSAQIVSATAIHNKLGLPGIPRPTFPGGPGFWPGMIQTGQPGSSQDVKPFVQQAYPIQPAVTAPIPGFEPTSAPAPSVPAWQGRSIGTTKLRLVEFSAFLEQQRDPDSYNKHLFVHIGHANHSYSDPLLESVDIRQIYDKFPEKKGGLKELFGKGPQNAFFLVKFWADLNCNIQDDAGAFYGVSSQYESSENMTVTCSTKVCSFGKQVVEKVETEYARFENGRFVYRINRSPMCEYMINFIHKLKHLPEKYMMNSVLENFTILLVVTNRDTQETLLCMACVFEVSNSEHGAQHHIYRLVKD
UniProt P46938: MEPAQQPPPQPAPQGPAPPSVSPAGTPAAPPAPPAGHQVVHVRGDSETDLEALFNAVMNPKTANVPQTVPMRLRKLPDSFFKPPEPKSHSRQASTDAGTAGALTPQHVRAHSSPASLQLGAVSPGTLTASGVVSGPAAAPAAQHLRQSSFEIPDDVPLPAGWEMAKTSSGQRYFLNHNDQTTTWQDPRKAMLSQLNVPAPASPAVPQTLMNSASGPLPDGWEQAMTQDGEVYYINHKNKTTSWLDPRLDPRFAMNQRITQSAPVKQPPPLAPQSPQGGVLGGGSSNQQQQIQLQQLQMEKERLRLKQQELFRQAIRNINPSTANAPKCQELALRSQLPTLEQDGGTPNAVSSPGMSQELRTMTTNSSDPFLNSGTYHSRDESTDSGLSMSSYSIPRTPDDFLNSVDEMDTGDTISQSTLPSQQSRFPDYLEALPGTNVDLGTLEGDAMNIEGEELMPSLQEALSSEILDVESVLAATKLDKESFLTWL

Assays:
[1] = biological target: Tead1-Flag (UniProt P30051); assay: co-IP; 293T cells co-transfected with Tead1-Flag and Yap1-HA, 48 h; Anti-Flag or Anti-HA magnetic beads overnight, three washes; with or without verteporfin
[2] = biological target: TEAD1, endogenous (mouse (endogenous in primary cultured cardiomyocytes)) (UniProt P30051); assay: co-IP; endogenous proteins; cells transfected with siNC or siVgll4, cultured 48 h; lysate incubated with Tead1 antibody and Dynabeads protein G overnight, three washes, eluted with 1X SDS loading buffer

binding [1] | binding [2] | Substance
binds | – | Yap1-HA (from UniProt P46938 1-488)
– | binds | Yes-associated protein 1 (YAP1), endogenous (from UniProt P46938 1-488)
